{"source": "PubChem BioAssay AID602196, INSERM – 2012", "screen": "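Knock-downs that protect lung cancer cells from cisplatin or sensitise them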", "cells": "human A549 lung cancer cells", "reagent": "siRNA pair against human genes", "time to read-out": "48 h transfection before cisplatin; time from cisplatin to read-out not stated", "treatment": "cisplatin at a dose killing half of control-siRNA cells; exact dose and duration not given", "read-out": "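Cisplatin cell death as a shift from the 50% death seen with control siRNA; siRNAs toxic or growth-blocking alone scored 0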", "scale": "two-siRNA summed score (-2 to +2): higher = both siRNAs protect from cisplatin killing; -2 means both sensitise; mean protection from cisplatin (shift in death): higher = protection from cisplatin killing", "rule for the call": "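siRNAs harmful alone (LDH or WST-1) get 0; others get +1 for less and -1 for more cisplatin killing; genes are active when the two siRNAs give the same sign, summing to ±2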", "meaning of the calls": "active = both siRNAs shift cisplatin killing the same way; inactive = no consistent shift, or siRNA harmful alone", "note": "In all, the deposit lists about 23,000 reagents; this is a random part of them. Over the whole deposit, 455 (2%) are marked active. 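Active includes both protection and sensitisation; some change values fall well beyond the stated -50 to +50 range.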 Not all columns of the deposit are shown. Not given: the amount of reagent."}
{"gene":"BSND","two-siRNA summed score (-2 to +2)":0,"mean protection from cisplatin (shift in death) (%)":1,"outcome":"inactive"}
{"gene":"LOC440498","two-siRNA summed score (-2 to +2)":1,"mean protection from cisplatin (shift in death) (%)":11.3,"outcome":"inactive"}
{"gene":"LOC442160","two-siRNA summed score (-2 to +2)":1,"mean protection from cisplatin (shift in death) (%)":7.4,"outcome":"inactive"}
{"gene":"OR13D1","two-siRNA summed score (-2 to +2)":0,"mean protection from cisplatin (shift in death) (%)":6,"outcome":"inactive"}
{"gene":"GUF1","two-siRNA summed score (-2 to +2)":0,"mean protection from cisplatin (shift in death) (%)":10.8,"outcome":"inactive"}
{"gene":"LOC441212","two-siRNA summed score (-2 to +2)":0,"mean protection from cisplatin (shift in death) (%)":5.4,"outcome":"inactive"}
{"gene":"SLC52A1","two-siRNA summed score (-2 to +2)":2,"mean protection from cisplatin (shift in death) (%)":23.9,"outcome":"active"}
{"gene":"ING1","two-siRNA summed score (-2 to +2)":0,"mean protection from cisplatin (shift in death) (%)":-4,"outcome":"inactive"}
{"gene":"LOC345829","two-siRNA summed score (-2 to +2)":0,"mean protection from cisplatin (shift in death) (%)":-2.4,"outcome":"inactive"}
{"gene":"LOC401544","two-siRNA summed score (-2 to +2)":0,"mean protection from cisplatin (shift in death) (%)":11,"outcome":"inactive"}
{"gene":"NT5C3B","two-siRNA summed score (-2 to +2)":1,"mean protection from cisplatin (shift in death) (%)":10,"outcome":"inactive"}
{"gene":"EFCAB7","two-siRNA summed score (-2 to +2)":0,"mean protection from cisplatin (shift in death) (%)":5.2,"outcome":"inactive"}
{"gene":"ERCC4","two-siRNA summed score (-2 to +2)":0,"mean protection from cisplatin (shift in death) (%)":0.6,"outcome":"inactive"}
{"gene":"PIP","two-siRNA summed score (-2 to +2)":1,"mean protection from cisplatin (shift in death) (%)":10.8,"outcome":"inactive"}
{"gene":"PCDHGB5","two-siRNA summed score (-2 to +2)":0,"mean protection from cisplatin (shift in death) (%)":10.2,"outcome":"inactive"}
{"gene":"RORA","two-siRNA summed score (-2 to +2)":0,"mean protection from cisplatin (shift in death) (%)":-5.2,"outcome":"inactive"}
{"gene":"LOC343854","two-siRNA summed score (-2 to +2)":0,"mean protection from cisplatin (shift in death) (%)":2.8,"outcome":"inactive"}
{"gene":"LOC123346","two-siRNA summed score (-2 to +2)":1,"mean protection from cisplatin (shift in death) (%)":20.8,"outcome":"inactive"}
{"gene":"SLC37A4","two-siRNA summed score (-2 to +2)":-2,"mean protection from cisplatin (shift in death) (%)":-18.1,"outcome":"active"}
{"gene":"LOC200493","two-siRNA summed score (-2 to +2)":1,"mean protection from cisplatin (shift in death) (%)":16.4,"outcome":"inactive"}
{"gene":"LCN12","two-siRNA summed score (-2 to +2)":0,"mean protection from cisplatin (shift in death) (%)":14,"outcome":"inactive"}
{"gene":"LOC440282","two-siRNA summed score (-2 to +2)":1,"mean protection from cisplatin (shift in death) (%)":9,"outcome":"inactive"}
{"gene":"JPH2","two-siRNA summed score (-2 to +2)":0,"mean protection from cisplatin (shift in death) (%)":5.8,"outcome":"inactive"}
{"gene":"LOC440125","two-siRNA summed score (-2 to +2)":0,"mean protection from cisplatin (shift in death) (%)":12.8,"outcome":"inactive"}
{"gene":"GPIHBP1","two-siRNA summed score (-2 to +2)":-1,"mean protection from cisplatin (shift in death) (%)":-6.2,"outcome":"inactive"}
{"gene":"TWIST1","two-siRNA summed score (-2 to +2)":0,"mean protection from cisplatin (shift in death) (%)":-4.5,"outcome":"inactive"}
{"gene":"CENPM","two-siRNA summed score (-2 to +2)":-1,"mean protection from cisplatin (shift in death) (%)":-1,"outcome":"inactive"}
{"gene":"SAMD15","two-siRNA summed score (-2 to +2)":0,"mean protection from cisplatin (shift in death) (%)":22.1,"outcome":"inactive"}
{"gene":"DKK1","two-siRNA summed score (-2 to +2)":-1,"mean protection from cisplatin (shift in death) (%)":-29.3,"outcome":"inactive"}
{"gene":"LOC284901","two-siRNA summed score (-2 to +2)":0,"mean protection from cisplatin (shift in death) (%)":4.5,"outcome":"inactive"}
{"gene":"LOC255620","two-siRNA summed score (-2 to +2)":0,"mean protection from cisplatin (shift in death) (%)":12.1,"outcome":"inactive"}

Active calls, of those listed so far:
{"gene":"SLC52A1","two-siRNA summed score (-2 to +2)":2,"mean protection from cisplatin (shift in death) (%)":23.9,"outcome":"active"}
{"gene":"SLC37A4","two-siRNA summed score (-2 to +2)":-2,"mean protection from cisplatin (shift in death) (%)":-18.1,"outcome":"active"}
